The target in experiment [1] is PCSK9蛋白 (Proprotein convertase subtilisin kexin type 9) (UniProt Q8NBP7). Kind of experiment: indirect phage ELISA of clones after four rounds of panning on coated PCSK9.
Experiment [2] shares this target. Nature of the experiment: SPR affinity curve (Figure 3).

Sequences of proteins named here, by UniProt entry; tags and fusion partners are left off. Residues count along the entry.
UniProt Q8NBP7, residues 31-692: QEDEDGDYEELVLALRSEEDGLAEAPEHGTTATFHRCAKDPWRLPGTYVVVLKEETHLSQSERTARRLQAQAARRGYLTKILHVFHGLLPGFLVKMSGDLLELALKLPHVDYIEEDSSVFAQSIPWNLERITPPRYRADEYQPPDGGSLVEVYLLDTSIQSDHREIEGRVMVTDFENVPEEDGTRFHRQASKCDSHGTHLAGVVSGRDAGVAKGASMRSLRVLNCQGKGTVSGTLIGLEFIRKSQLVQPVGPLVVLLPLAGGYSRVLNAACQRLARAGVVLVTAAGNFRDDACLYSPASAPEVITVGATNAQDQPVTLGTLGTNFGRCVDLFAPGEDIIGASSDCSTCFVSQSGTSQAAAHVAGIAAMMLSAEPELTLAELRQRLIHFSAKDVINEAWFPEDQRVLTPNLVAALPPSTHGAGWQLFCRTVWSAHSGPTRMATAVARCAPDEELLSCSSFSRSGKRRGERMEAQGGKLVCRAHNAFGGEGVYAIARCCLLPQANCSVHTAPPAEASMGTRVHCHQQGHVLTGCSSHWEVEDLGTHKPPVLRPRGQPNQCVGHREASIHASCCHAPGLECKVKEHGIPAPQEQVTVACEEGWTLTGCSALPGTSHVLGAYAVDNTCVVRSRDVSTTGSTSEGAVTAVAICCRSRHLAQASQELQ

We go through 1 molecule from patent publication CN115746140A.

No constants are given. Whether binding was seen depends on the method and setting. Some binding calls cover weakened binding; strength is not graded here.

B1: 纳米抗体P2-11D (anti-PCSK9 nanobody P2-11D) (VHH)
VHH: DVQLQESGGGLVQPGGSLRLSCAASGFTFRAYDMGWYRQAPGKQRDLVAVISSSGGTPNYADSVKDRFTISRDNDKNTVYLQMNSLKSEDTALYYCNARWESSAYERDYWGRGTQVTVSS
In the case of B1, the binding entry in experiment [1] and in experiment [2] was “binds” in each case.
